Test results reported in patent publication US20220268787A1.
These are yes or no findings as the source states them, for the method shown. Some results given as binding are weak or reduced against the parent protein; the word gives no strength.

Key:
[1] = target: T1, WRS (tryptophanyl-tRNA synthetase) protein, full-length (1-471) (human) (UniProt P23381); assay: Western blotting of recombinant WRS and its fragments
T1 sequence: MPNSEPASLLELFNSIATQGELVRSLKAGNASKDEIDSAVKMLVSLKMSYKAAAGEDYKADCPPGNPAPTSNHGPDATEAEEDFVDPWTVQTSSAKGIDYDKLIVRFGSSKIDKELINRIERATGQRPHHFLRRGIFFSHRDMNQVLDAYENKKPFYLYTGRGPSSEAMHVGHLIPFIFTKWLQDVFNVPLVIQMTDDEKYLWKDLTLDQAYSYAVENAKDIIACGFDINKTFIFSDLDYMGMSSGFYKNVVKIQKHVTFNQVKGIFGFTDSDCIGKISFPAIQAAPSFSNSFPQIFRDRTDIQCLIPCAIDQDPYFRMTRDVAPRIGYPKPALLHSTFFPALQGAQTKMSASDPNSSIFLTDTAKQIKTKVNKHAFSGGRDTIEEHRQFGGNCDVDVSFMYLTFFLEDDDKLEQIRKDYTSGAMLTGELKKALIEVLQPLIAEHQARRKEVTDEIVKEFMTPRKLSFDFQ

[2] = target: T1, WRS (tryptophanyl-tRNA synthetase) protein, full-length (1-471) (human); assay: indirect ELISA on coated full-length WRS
[3] = target: T1, WRS (tryptophanyl-tRNA synthetase) protein, full-length (1-471) (human); assay: indirect ELISA, antigen coated at 1 µg/ml, antibody at 500 ng/ml

Measured: binding

B1: 4D10G6 monoclonal antibody (antibody, V domains shown)
VH: EFQLQQSGPELVKPGASVKISCKASGYAFIDYNMNWVKQSNGKSLEWIGVINPNYGTIRYNQKFKGKATLTVDQSSSTAYMQLNSLTSEDSAVYYCAGLLRGYYAMDYWGQGTSVTVSS
VL: QAVVTQESALTTSPGETVTLTCRSSTGAVTTSNYANWVQEKPDHLFTGLIGGTNNRAPGVPARFSGSLIGDKAALTITGAQTEDEAIYFCVLWYSNHWVFGGGTKLTVL
binds: [1] | [2] | [3]
